Some entries repeat one wording, which the source may state once for all of them.
Assay: Salt screen summary (sequence of four salt screens)
Conditions: not given

Compound | Does the Electrolyte Salt Pass All Salt Screens?
O=C([O-])[O-].[Ca+2] [Calcium Carbonate, calcium carbonate] | NO, Develops chalky and dry flavor
[Ca+2].[Cl-].[Cl-] [Calcium Chloride, calcium chloride] | NO, Develops clumps and stickiness
[Cl-].[Cl-].[Mg+2] [Magnesium Chloride, magnesium chloride] | NO, Develops clumps and stickiness
O=S(=O)([O-])[O-].[Mg+2] [Magnesium Sulfate, magnesium sulfate] | NO, Develops sour and dry flavor

Same assay, conditions: summary of four salt screens

Compound | Does the Electrolyte Salt Pass All Salt Screens?
CC(O)C(=O)[O-].CC(O)C(=O)[O-].[Ca+2] (stereo not shown) [Calcium Lactate, calcium lactate] | NO, Develops muddy flavor
[Cl-].[K+] [Potassium Chloride, potassium chloride] | Yes
O=C([O-])O.[Na+] [Sodium Bicarbonate, sodium bicarbonate] | NO, Develops muddy flavor
[Cl-].[Na+] [Sodium Chloride, sodium chloride] | Yes
O=P([O-])(O)O.[Na+] [Sodium Phosphate Monobasic, sodium phosphate monobasic] | NO, Develops muddy flavor
magnesium citrate | NO, Difficult to dissolve

Reference: patent US20190350240A1, “Electrolyte-Enhanced Sweetener and Consumable Products Obtained” (priority 2018, published 2019)
